Reference: PubChem BioAssay AID1671190 (National Center for Advancing Translational Sciences (NCATS), 2021)
Several values for one entry are separate records, joined by “and”; a condition that tells them apart may be missing. Identical values can stand only once. Screen size: about 580,000 compounds; about 6,100 (1.1%) were called active. The shares of active, inactive and inconclusive entries below differ from those in the screen. The call rests on the fitted dose curve; in most records, active means well fitted inhibition curve with a large enough effect; inconclusive means small, poorly fitted or top-dose-only effect, or another doubt; inactive means no such curve, though single readings can be large or run the other way. Potencies beside an inconclusive call are fits to weak or partial responses and may not hold up.

Sequences of proteins named here, by UniProt entry; tags and fusion partners are left off. A change or cut given only in a name is not applied to a line headed by its entry.
UniProt P18054: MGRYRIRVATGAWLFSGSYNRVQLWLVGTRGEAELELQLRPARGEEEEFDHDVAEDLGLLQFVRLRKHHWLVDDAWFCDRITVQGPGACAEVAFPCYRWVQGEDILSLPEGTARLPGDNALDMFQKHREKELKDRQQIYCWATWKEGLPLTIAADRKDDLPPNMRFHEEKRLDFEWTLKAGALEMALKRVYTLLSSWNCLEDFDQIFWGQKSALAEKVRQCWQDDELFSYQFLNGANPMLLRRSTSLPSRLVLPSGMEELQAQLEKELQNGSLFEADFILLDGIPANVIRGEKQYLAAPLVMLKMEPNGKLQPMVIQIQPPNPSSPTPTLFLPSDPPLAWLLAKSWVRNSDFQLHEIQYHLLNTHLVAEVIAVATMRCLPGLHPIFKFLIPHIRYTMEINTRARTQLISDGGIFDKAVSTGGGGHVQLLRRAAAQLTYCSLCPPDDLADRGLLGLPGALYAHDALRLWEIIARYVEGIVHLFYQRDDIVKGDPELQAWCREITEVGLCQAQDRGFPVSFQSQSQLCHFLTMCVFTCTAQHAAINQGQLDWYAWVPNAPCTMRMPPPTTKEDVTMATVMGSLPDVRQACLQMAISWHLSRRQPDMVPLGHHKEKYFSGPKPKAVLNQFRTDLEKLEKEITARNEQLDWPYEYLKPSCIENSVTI

biological target: Polyunsaturated fatty acid lipoxygenase ALOX12 (Homo sapiens) (UniProt P18054); test: Primary qHTS assay for inhibitors of human arachidonate 12S-lipoxygenase (ALOX12): Round 2; details: purified 12hLO, xylenol orange hydroperoxide absorbance; activity change, negative = inhibition: at 108 µM (top of the series) unless noted
In short: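 Purified human 12hLO at 150 nM in 25 mM Hepes, 0.01% Triton X-100, pH 7.0, preincubated 15 min at room temperature with compound. Reaction started with 40 uM arachidonic acid, 30 min at room temperature. Hydroperoxide measured by Fe-xylenol orange, 573/405 nm absorbance ratio.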
On the % scale 0 is the no-effect control and ±100 the full control effect; potency means the concentration at half of the fitted maximal effect.

| Compound | activity change, negative = inhibition | Potency |
| --- | --- | --- |
| O=C(CCC1CCN(C(=O)c2ccccc2)CC1)NCCN1CCCCC1 | inactive: 31% | – |
| O=c1c(-c2nc3ccccc3s2)cccn1Cc1ccc(Cl)cc1 | – | inconclusive: 79.4 µM [inhibitor, single point] |
| COc1cccc(/C=C/c2nc(C#N)c(NCCc3ccccc3)o2)c1 | – | inconclusive: 28.2 µM [inhibitor, full curve, poor fit] |
| Cc1ccc(S(=O)(=O)N2CCN(C(=O)CN3C(=O)NC(C)(c4ccc5ccccc5c4)C3=O)CC2)cc1 (stereo not given) | – | inconclusive: 44.7 µM [inhibitor, partial curve, poor fit] |
| Nc1nc(-c2ccccc2)[nH]c(=O)c1N=O | – | inconclusive: 25.1 µM [inhibitor, partial curve] |
| C=CCN(CC(=O)NC1CC1)S(=O)(=O)c1cccc(C(F)(F)F)c1 | – | inconclusive: 126 µM [inhibitor, single point] |
| CCCCCCN1C[C@H](O)[C@@H](n2cc(COC(=O)c3ccccc3)nn2)C[C@@H]1c1ccc(C)cc1 | – | inconclusive: 141 µM [inhibitor, single point] |
| CCCCCn1c(-n2nc(C)c(C)c2C)nc2c1c(=O)n(CC(=O)OC)c(=O)n2C | inactive: 24.3% | – |
| CC(OC(=O)Cn1[nH]c(=O)c2ccccc2c1=O)C(=O)Nc1cccc(Cl)c1Cl (stereo not given) | inactive: -8.67% | – |
| CCOC(=O)C1(C)/C(=N/Nc2cccc(Cl)c2)C(=O)C(=O)N1c1ccccc1 (stereo not given) | – | active: 22.4 µM |
| O=C1CCCC2=C1C(c1ccc(Cl)c(Cl)c1)c1c([nH]n(-c3ccccc3)c1=O)N2 (stereo not given) | – | inconclusive: 7.08 µM [inhibitor, full curve] |
| COc1cc(OC)cc(C(=O)NC(=S)NNC(=O)[C@H]2C[C@@H]2c2ccccc2)c1 | – | inconclusive: 3.98 µM [inhibitor, full curve, poor fit] |
| CC(=O)N1CCn2c(nn(-c3ccc(F)cc3)c2=O)C1 | inactive: 11.7% [at 176 µM] | – |
| Cc1cccc(C(C)C)c1NC(=O)COC(=O)Cc1ccsc1 | – | inconclusive: 39.8 µM [inhibitor, single point] |
| CCNc1ccc(S(=O)(=O)N(CC)CC)cc1NCc1c(F)cccc1Cl | inactive: 4.85% | – |
| C=CCNC(=O)c1ccccc1NC(=O)C1CCN(S(=O)(=O)c2ccc(SC)cc2)CC1 | – | inconclusive: 50.1 µM [inhibitor, partial curve, poor fit] |
| COc1ccc(Cc2nnc(SCC(=O)N(c3ccccc3)C(C)C)n(N)c2=O)cc1 | – | inconclusive: 70.8 µM [inhibitor, single point] |
| CCN(CC)C(=O)/C(=C\c1ccc(Br)cc1)NC(=O)c1ccccc1OC | inactive: 6.41% | – |
| Cc1cc2cc(C(=O)N3CCC4(CCCN(CC5CC5)C4)C3)ccc2o1 (stereo not given) | – | inconclusive: 28.2 µM [inhibitor, full curve, poor fit] |
| COc1ccc(CCN2C(=O)c3ccccc3C2c2nnnn2Cc2ccccc2)cc1OC (stereo not given) | inactive: -1.15% | – |
| BrC(=C\c1ccccc1)/C=N/Nc1nc2ccccc2[nH]1 | inactive: 1.55% | – |
| CC[C@H]1OC(=O)[C@H](C)C(=O)[C@H](C)[C@@H](O[C@H]2O[C@H](C)C[C@H](N(C)C)[C@@H]2O)[C@](C)(OC)C[C@@H](C)C(=O)[C@H](C)[C@H]2N(CCCCn3cnc(-c4cccnc4)c3)C(=O)O[C@]12C | – | active: 4.85 µM |

| Compound | activity change, negative = inhibition | Potency |
| --- | --- | --- |
| COc1ccc(C(=O)c2oc3nc(C)cc(C)c3c2N)cc1 | – | inconclusive: 44.7 µM [inhibitor, single point] |
| O=C(/C=C/c1ccco1)N1CCCC(C(F)(F)F)C1 (stereo not given) | – | inconclusive: 44.7 µM [inhibitor, partial curve, poor fit] |
| CCC(C)Nc1ncnc2c1CN(C1CCCNCC1)C(=O)CN2C (stereo not given) | – | inconclusive: 7.08 µM [inhibitor, full curve] |
| COc1ccccc1C(=O)COC(=O)c1cc(S(=O)(=O)N2CCCCC2)ccc1N1CCOCC1 | inactive: -13.1% | – |
| CCOC(=O)CCCNC(=S)Nc1c(C)cccc1C | – | inconclusive: 44.7 µM [inhibitor, single point] |
| Cc1cccc(NC(=O)c2cnc3scc(C)n3c2=O)c1 | – | inconclusive: 100 µM [inhibitor, single point] |
| COc1cc(OC)cc(C(=O)Nc2ccc(S(=O)(=O)Nc3cnc4ccccc4n3)cc2)c1 | – | inactive and inconclusive: 12.6 µM [inhibitor, full curve] |
| CCOc1ccccc1NC(=O)c1ccc(S(=O)(=O)N2CCOCC2)cc1 | – | inconclusive: 112 µM [inhibitor, single point] |
| COc1cccc(-c2oc3c(c2C(=O)OCCN2CCCCC2)C(O)CCC3)c1 (stereo not given) | – | inconclusive: 39.8 µM [inhibitor, partial curve, poor fit] |
| CCCCC[C@@H](C)N1C[C@H](COCc2ccccc2)Oc2cc(N3CC[C@@H](N(C)C)C3)ccc2S1(=O)=O | – | inconclusive: 39.8 µM [inhibitor, partial curve, poor fit] |
| COc1cc2ccccc2cc1C(=O)NC(=S)Nc1cccc(C(=O)O)c1C | – | inconclusive: 31.6 µM [inhibitor, partial curve] |
| COc1ccc(CN2CCNC(=O)C2CC(=O)O)cc1OC (stereo not given) | inactive: 8.94% [at 57.4 µM] | – |
| O=C(Cc1ccccc1)N1CCC(c2n[nH]c(=O)n2Cc2ccc(F)cc2)CC1 | – | inconclusive: 15.8 µM [inhibitor, full curve, poor fit] |
| COCCC1(C(=O)O)CCCN(C(=O)CCc2c(C)n[nH]c2C)C1 (stereo not given) | inactive: 9.75% | – |
| CN(C)/C=N/c1cc(=O)n(Cc2ccccc2)c(=O)n1C | inactive: 4.67% | – |
| N/C(Cc1ccc(Cl)cc1Cl)=N\OC(=O)Cc1ccc(Cl)cc1 | – | inconclusive: 100 µM [inhibitor, partial curve, poor fit] |
| COc1ccc(CCn2c3c(c(=O)[nH]c2=O)C(NC(=O)c2ccccc2F)(C(F)(F)F)C(=O)N3)cc1OC (stereo not given) | – | inconclusive: 44.7 µM [inhibitor, partial curve, poor fit] |
| COc1ccccc1N1CCN(C(=O)CSc2ccccc2)CC1 | – | inconclusive: 15.8 µM [inhibitor, partial curve, poor fit] |
| CSc1ccc(-c2sc(Nc3cccc4ccccc34)n[n+]2-c2ccccc2)cc1 | – | inconclusive: 35.5 µM [inhibitor, partial curve, poor fit] |
| N[C@@H]1CC[C@H](C(=O)N2CCC(c3nccn3Cc3ccncc3)CC2)C1 | – | inconclusive: 3.16 µM [inhibitor, full curve] |
| COc1cc(C=O)cc(Br)c1OC(=O)c1ccc(C)cc1 | – | inconclusive: 100 µM [inhibitor, single point] |
| Cc1cccc(C)c1-n1nnnc1-c1nc2cc3ccccc3cc2[nH]c1=O | – | inconclusive: 112 µM [inhibitor, single point] |

| Compound | activity change, negative = inhibition | Potency |
| --- | --- | --- |
| CC(C)CCNc1nc(C(=O)OCC(=O)NC(=O)NC(C)C)cs1 | inactive: -32.3% | – |
| N[C@@H](Cn1cc(I)c(=O)n(Cc2ccc(C(=O)O)cc2)c1=O)C(=O)O | – | inconclusive: 7.08 µM [inhibitor, partial curve, poor fit] |
| Cc1ccn2cc(CC(=O)O)nc2c1 | – | inconclusive: 3.55 µM [inhibitor, full curve, poor fit] |
| COC(=O)Cn1c2ccc(C)cc2c2nc(C)sc21 | – | inconclusive: 50.1 µM [inhibitor, partial curve, poor fit] |
| c1ccc2c(c1)Cc1cc3ccccc3nc1-2 | – | inconclusive: 44.7 µM [inhibitor, partial curve, poor fit] |
| CC(C)(C)c1[nH]nc2c1C(C1C=CCCC1)C(C#N)=C(N)O2 (stereo not given) | – | inconclusive: 0.224 µM [inhibitor, full curve, poor fit] |
| Cc1ccc(NS(=O)(=O)c2c(C(=O)N3CCCCCC3)c(C)n(C)c2C)cc1C | inactive: 5.14% | – |
| CCCCOc1ccc(/C=N/NC(=S)Nc2cc(C)ccc2C)cc1 | – | inconclusive: 50.1 µM [inhibitor, partial curve, poor fit] |
| O=C(Nc1ccc(Br)cc1)C1CC(c2c(F)cccc2Cl)=NO1 (stereo not given) | – | inconclusive: 100 µM [inhibitor, single point] |
| CC(C)Cn1cc(C(=O)NCc2cccs2)c2c3ccccc3n(C)c2c1=O | inactive: -13.4% | – |
| Cc1cccc(NC(=O)c2ccc(COc3ccc(Cl)cc3Cl)o2)n1 | – | inconclusive: 79.4 µM [inhibitor, single point] |
| COc1ccc(OCCSc2nnc(CC(=O)Nc3cccc(Cl)c3Cl)n2C)cc1 | – | inconclusive: 17.8 µM [inhibitor, partial curve, poor fit] |
| COc1cccc(Nc2ccc3cc(S(=O)(=O)N4CCC(C)CC4)ccc3n2)c1 | – | inconclusive: 44.7 µM [inhibitor, partial curve] |
| Cc1ccc(C(=O)Nc2ccc(F)c(S(=O)(=O)N3CCOCC3)c2)s1 | – | inconclusive: 112 µM [inhibitor, single point] |
| COc1ccc(CCC(=O)NNC(=S)NCc2ccc(F)cc2)cc1 | inactive: 405% | – |
| CCOC(=O)c1ccccc1NC(=O)COc1coc(CN2CCc3ccccc32)cc1=O | inactive: -22.3% | – |
| O=C(Nc1ccccc1)Nc1cccc(Cl)c1Cl | – | inconclusive: 12.6 µM [inhibitor, full curve] |
| O=C(O)c1ccccc1-c1ccc(/C=N/O)o1 | – | inconclusive: 28.2 µM [inhibitor, partial curve, poor fit] |
| Cc1cccc(-c2cc3nc(-c4ccccc4)cc(=O)n3[nH]2)c1 | inactive: 10.9% | – |
| CCCCOC(=O)Nc1ccc2c(C)cc(=O)oc2c1 | – | inconclusive: 141 µM [inhibitor, single point] |
| O=C1NC(=S)NC(=O)C1=Cc1ccccc1C(=O)O | – | inconclusive: 15.8 µM [inhibitor, partial curve] |
